In test [1] the target is Enterococcus italicus Cas10 (Csm1) HD domain mutant (HD>AN) (Enterococcus italicus DSM-15952) (UniProt E6LHV7). Briefly: co-purification.
Test [2] concerns the target Enterococcus italicus Cas10 (Csm1) Palm domain mutant (GGDD>GGAA) (Enterococcus italicus DSM-15952) (UniProt E6LHV7). Briefly: co-purification.

Results are given in words; binding and its absence hold for the method and conditions named. Binding seen in cells or lysates may run through a third protein. Binding calls can cover weak binding; strength is not graded here.

B1: Enterococcus italicus Csm5 subunit of the EiCsm(1-5) complex (protein, UniProt E6LHV3 1-349)
chain: MIEKVYQVKLKVYGPVHIGSGKIIRKQEYIYDRRKSLAHIVDGPNLVKFLNKKGKFTAYLQYLNTTKERADLYTFLRQEQIDTNDWKTFVLYTERVNQGKIDMKDHNPYSRTSTNRRQVDKGMNDLHLFVRDGRGDLYIPGSSLKGALRTVLEGANQSAEAFHSLSISDSLPIDPKNLAIYQKIDINKELKPMPLYRECVNVGTTVEFTMKINSDDWTIEKIEKQIQQAYLQYWNKWFVGMVTTPGGKAFIKGGGLPSVLHAKHRPTVLFLGGGTGFPSKTTHYLQKPKEQAQKDIFAILQRRFRNVYGKMATVPKNVPMVLKGTVNDSTNKWYQQGVCLLEFQPIGEA
On to B1, for which the binding entry in test [1] and in test [2] was “binds” in each case.

For the origin of these results see doi:10.1101/153262.
